{
  "sequences": {"note": "Amino acid sequences for entries named in this document (tags omitted).", "UniProt P31941, whole entry E72A": "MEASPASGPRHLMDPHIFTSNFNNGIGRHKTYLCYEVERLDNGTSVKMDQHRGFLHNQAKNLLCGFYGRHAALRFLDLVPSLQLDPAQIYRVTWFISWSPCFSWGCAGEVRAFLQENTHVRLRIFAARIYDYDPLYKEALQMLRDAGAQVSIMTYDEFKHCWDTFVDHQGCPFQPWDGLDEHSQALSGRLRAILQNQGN"},
  "source": "paper PMC5951847",
  "molecular_target": "A3A(E72A) (Homo sapiens) (UniProt P31941)",
  "test": "fluorescence anisotropy",
  "details": "pH above 8.0 (8.5, 9.0); 50 mM MES pH 6.0, 100 mM NaCl, 0.5 mM TCEP, room temperature overnight, 10 nM TAMRA-oligo; competition with 300 nM A3A(E72A); pH series: acetate 4.0-5.0, MES 5.5-6.5; recombinant protein; protein details: His6-SUMO removed by Ulp1 (untagged); label: 5' TAMRA; single-stranded DNA; letters put together from the description",
  "note": "The exact form of at least one protein or probe is not confirmed. A negative result means that nothing was seen under these conditions.",
  "data": [
    {"sequence": "AAAATTCAAAAAA [Poly A-TTC (pH series, 4A-TTC-6A)]", "values": [
      {"measurement": "binding result", "result": "no binding"}
    ]}
  ]
}
